# Measured values from US6900239B2, “Tumor chemopotentiation using isocoumarin derivatives” (ILWZ ILEX Products, Inc., priority 2000, dated 2005).
# At least one structure is not confirmed: it was looked up by name or label, or the drawing left a doubt.
# What was measured:
# [1] = tested on: MM1.S human multiple myeloma cells; test: Apoptosis by annexin V-FITC and PI staining; type: cell-based; settings: DEX 1 μM, 24 hours
# Description: Apoptosis was determined by staining cells with annexin V-FITC and propidium iodide (PI). Cells were treated with DEX in the presence or absence of NM-3. NM-3 was added 2 hours before the addition of DEX. After 24 hours of DEX exposure, cells were washed twice with cold PBS, resuspended in binding buffer (10 mM HEPES/NaOH (pH 7.4), 140 mM NaCl, 2.5 mM CaCl2), and then stained with annexin V-FITC (Clontech Laboratories) and PI (Boehringer-Manheim). Apoptosis was analyzed by using a flow cytometer (EPICS XL-MCL, Coulter Corp). The cultured cells were also subjected to cell cycle analysis. Briefly, cells were washed twice with PBS and fixed with 70% ethanol. Cells were then washed with 0.5 ml PBS and 1.0 ml phosphate-citric acid buffer (0.2 M Na2HPO4 and 0.1 M citric acid (pH 7.8)), treated with 200 μg/ml RNase for 15 min at 37° C., and stained with 50 μg/ml PI for 30 min at room temperature in the dark. Cells were filtered through 35-μm diameter mesh to remove clumps. Nuclear staining was analyzed by a flow cytometer. Cells with fractional DNA content located on DNA frequency histograms to the left of the G1 peak (sub-G1 cells) were identified as apoptotic cells.
# RPMI8662 cells = test: Cell viability by MTT assay; type: cell-based, human; settings: DEX alone
# Description: (§1) The human multiple myeloma cell line MM1.S was maintained in RPMI1640 medium supplemented with 10% fetal bovine serum, 100 units/ml penicillin, and 100 μg/ml streptomycin at 37° C. in an atmosphere of 5% CO2 in air. Cells (3×10^4 cells/well) were seeded in 96 well-plates and incubated with increasing concentrations of DEX or DOX in the presence or absence of NM-3. NM-3 was added at concentrations of 0, 50, 100 and 200 μg/ml 2 hours before the addition of DOX or DEX. After 24 hours of DOX or DEX exposure, 10 μl of MTT reagent (Roche Molecular Biochemicals, final concentration 0.5 mg/ml) was added to each well and allowed to incubate for 4 hours. After the incubation, 100 μl of solubilization solution (10% sodium dodecyl sulfate in 0.01M HCl) was added to each well and allowed to incubate overnight. Optical density at 565 nm was determined using a spectrophotometer (Molecular Devices Corp.).
# (§2) The effects of NM-3 in combination with dexamethasone on the viability of RPM18662 and U266 human multiple meyeloma cells were investigated. Experimental conditions were as described in Example 11, with the exception that cells were seeded at 6×10^3 cells/well and the cells were incubated with the appropriate concentrations of NM-3 and DEX for either 48 or 72 hours prior to addition of the MTT reagent.
# U266 cells = test: Cell viability by MTT assay; type: cell-based, human; settings: DEX alone
# Description: as §1, §2
smiles,measurement,setting,value
"C[C@@H]1C[C@H]2[C@@H]3CCC4=CC(=O)C=C[C@]4(C)[C@@]3(F)[C@@H](O)C[C@]2(C)[C@@]1(O)C(=O)CO [DEX, dexamethasone, reference compound]",Population of apoptotic cells,[1],significant increase in the population of apoptotic cells
same,Cell viability,RPMI8662 cells; 48 hour preincubation,significant effect on cell viability
same,Cell viability,RPMI8662 cells; 72 hours preincubation,did not result in a decrease in cell viability
same,Cell viability,U266 cells; 48 hour preincubation,significant effect on cell viability
same,Cell viability,U266 cells; 72 hours preincubation,did not result in a decrease in cell viability
